This continues a long series; more values of the same kind are listed elsewhere.
System: distal small bowel gene expression
Assay: RNA sequencing / transcriptional analysis of small bowel 56 days after ICR (2′-FL signature response)
Format: in vivo, mouse
Source text: Luminal small bowel contents were expressed into AllProtect Tissue Reagent (Qiagen Inc, CA). Bacterial DNA was extracted using the AllPrep DNA/RNA Mini Kit (Qiagen Inc, CA), according to kit instructions and prior to sequencing (described below). Small bowel tissue samples for RNA were placed into RNA Later (Life Technologies, NY). RNA extraction was accomplished following Qiagen RNeasy Plus Kit instruction (Qiagen Inc, CA). All nucleic acid samples were then stored at -80 Celsius until sequenced (described below). Transcriptional analysis was carried out on resected and harvested small bowel samples obtained from operated mice taken to 8 weeks. Murine RNA sequencing libraries were prepared from approximately 1.5 μg RNA using the TruSeq RNA Sample Preparation Kit (Illumina, Calif.) and sequenced using the HiSeq 2000 Sequencing System (Illumina, Calif.) with single-end 50 bp reads. Following removal of primers and barcodes, sequences were aligned to the mm10 genome using reference annotations from UCSC (Rosenbloom et al. (2015) Nucleic acids research 43: […]-681) (n=36,186 entities). Aligned reads were quantified and used to compute reads per kilobase per million mapped reads (RPKM); raw counts were then normalized using the DESeq algorithm and each harvested sample was baselined to its own resected sample. A filter was applied to the data, requiring at least three reads in all samples of at least one of the four experimental conditions (n=14,489 entities). The data discussed in this publication have been deposited in NCBI's Gene Expression Omnibus and are accessible through NCBI Gene Expression Omnibus (GEO) Series accession number GSE72590. Edgar et al. (2002) Nucleic acids research 30: 207-210. In order to characterize the impact of 2'-FL supplementation while accounting for the effect of ileoecal resection, a t-test was applied between resected and harvested samples within control and experimental animals. Significance was set at a p-value of ≤0.05 and a fold change of 3, which generated 2,576 differentially regulated entities across two comparisons. Gene set unions and intersections of the control and experimental gene sets were identified through Venn diagrams. From the master list, the gene list specific to animals supplemented with 2'-FL were removed in order to identify genes differentially regulated only by ICR (n=546 entities); this gene set characterizes the adaptive response. Further, the 2'-FL response (n=2,030 entities) was identified by removing the adaptive response signature described above from the master list, leaving only genes regulated by 2'-FL supplementation after ICR which were not found in the non-supplemented adaptive response. Heatmaps were generated using hierarchical clustering with the Pearson's Centered distance metric and the average linkage rule; both entities and samples were clustered. All genomic analyses described above were performed in Strand NGS (Strand Life Sciences, CA). Gene list functional enrichment was initially discovered using ToppFun, a member of the ToppGene Suite. Chen et al. (2009) Nucleic acids research 37: […]-311. No statistical correction was selected. Gene lists were further analyzed using ClueGO, a plugin for Cytoscape designed to decipher functionally grouped gene ontology and pathway annotation networks. Bindea et al. (2009) Bioinformatics 25: 1091-1093. At the time of data analysis, the annotation files were updated from sources to Jan. 1, 2015. “GO Term Fusion” was enabled to manage ontologic term redundancy and network specificity was set to medium. Results were restricted to pathways with p≤0.05 using Benjamini-Hochberg correction and Kappa scoring was set to 0.4. Biocyc annotations were assigned a rectangle, gene ontology biologic processes were assigned an ellipse, and […] annotations were assigned a diamond shape. No meaning was assigned to size or color. […]

## C[C@@H]1O[C@@H](O[C@H]2[C@H](O[C@H]3[C@H](O)[C@@H](O)C(O)O[C@@H]3CO)O[C@H](CO)[C@H](O)[C@@H]2O)[C@@H](O)[C@H](O)[C@@H]1O (stereo partly shown) [2′-FL, 2′-fucosyllactose]
Gene Lmln
  Fold Change (Pre- to Post-op): −5.849
Gene Lpcat1
  Fold Change (Pre- to Post-op): −3.49
Gene Lphn1
  Fold Change (Pre- to Post-op): −5.839
Gene Lpin1
  Fold Change (Pre- to Post-op): −9.312
Gene Lpl
  Fold Change (Pre- to Post-op): −6.21
Gene Lrig3
  Fold Change (Pre- to Post-op): −3.766
Gene Lrp3
  Fold Change (Pre- to Post-op): −4.783
Gene Lrp4
  Fold Change (Pre- to Post-op): −3.166
Gene Lrp5
  Fold Change (Pre- to Post-op): −4.491
Gene Lrp8
  Fold Change (Pre- to Post-op): −3.215
Gene Lrrc32
  Fold Change (Pre- to Post-op): −5.787
Gene Lrrc47
  Fold Change (Pre- to Post-op): −4.268
Gene Ltbp3
  Fold Change (Pre- to Post-op): −5.229
Gene Ltbp4
  Fold Change (Pre- to Post-op): −7.119
Gene Ltk
  Fold Change (Pre- to Post-op): −3.671
Gene Ly9
  Fold Change (Pre- to Post-op): −4.129
Gene Ly75
  Fold Change (Pre- to Post-op): −3.155
Gene Mab21l2
  Fold Change (Pre- to Post-op): −3.674
Gene Macc1
  Fold Change (Pre- to Post-op): −3.441
Gene Madd
  Fold Change (Pre- to Post-op): −3.432
Gene Magee1
  Fold Change (Pre- to Post-op): −6.389
Gene Malat1
  Fold Change (Pre- to Post-op): −5.742
Gene Maml1
  Fold Change (Pre- to Post-op): −3.799
Gene Maml2
  Fold Change (Pre- to Post-op): −3.955
Gene Maml3
  Fold Change (Pre- to Post-op): −4.76
Gene Mamld1
  Fold Change (Pre- to Post-op): −4.477
Gene Man1c1
  Fold Change (Pre- to Post-op): −7.486
Gene Man2a2
  Fold Change (Pre- to Post-op): −4.11
Gene Man2b1
  Fold Change (Pre- to Post-op): −3.221
Gene Map1a
  Fold Change (Pre- to Post-op): −3.571
Gene Map1s
  Fold Change (Pre- to Post-op): −3.641
Gene Map3k9
  Fold Change (Pre- to Post-op): −4.047
Gene Map4
  Fold Change (Pre- to Post-op): −3.068
Gene Map4k2
  Fold Change (Pre- to Post-op): −3.524
Gene Mapk4
  Fold Change (Pre- to Post-op): −4.411
Gene Mapk7
  Fold Change (Pre- to Post-op): −4.177
Gene Mapre2
  Fold Change (Pre- to Post-op): −3.082
Gene Mark1
  Fold Change (Pre- to Post-op): −3.566
Gene Mark4
  Fold Change (Pre- to Post-op): −6.451
Gene Mast2
  Fold Change (Pre- to Post-op): −3.485
Gene Mast4
  Fold Change (Pre- to Post-op): −3.888
Gene Mbd6
  Fold Change (Pre- to Post-op): −5.762
Gene Mbp
  Fold Change (Pre- to Post-op): −3.221
Gene Mcf2l
  Fold Change (Pre- to Post-op): −3.174
Gene Med12
  Fold Change (Pre- to Post-op): −6.66
Gene Med13l
  Fold Change (Pre- to Post-op): −4.75
Gene Med28
  Fold Change (Pre- to Post-op): 3.032
Gene Mef2d
  Fold Change (Pre- to Post-op): −4.046
Gene Megf6
  Fold Change (Pre- to Post-op): −4.097
Gene Megf8
  Fold Change (Pre- to Post-op): −4.517
Gene Megf9
  Fold Change (Pre- to Post-op): −3.69
Gene Mep1a
  Fold Change (Pre- to Post-op): −5.171
Gene Mfhas1
  Fold Change (Pre- to Post-op): −6.536
Gene Mfsd6
  Fold Change (Pre- to Post-op): −3.117
Gene Mgat5
  Fold Change (Pre- to Post-op): −5.622
Gene Mical2
  Fold Change (Pre- to Post-op): −4.656
Gene Mid1
  Fold Change (Pre- to Post-op): −3.048
Gene Midn
  Fold Change (Pre- to Post-op): −4.128
Gene Mink1
  Fold Change (Pre- to Post-op): −3.214
Gene Mira
  Fold Change (Pre- to Post-op): −5.084
Gene Mllt6
  Fold Change (Pre- to Post-op): −4.66
Gene Mlph
  Fold Change (Pre- to Post-op): −3.283
Gene Mlxip
  Fold Change (Pre- to Post-op): −3.3
Gene Mmp2
  Fold Change (Pre- to Post-op): −3.938
Gene Mmp14
  Fold Change (Pre- to Post-op): −3.777
Gene Mmrn2
  Fold Change (Pre- to Post-op): −7.756
Gene Mn1
  Fold Change (Pre- to Post-op): −5.932
Gene Mnt
  Fold Change (Pre- to Post-op): −4.621
Gene Mpdz
  Fold Change (Pre- to Post-op): −6.001
Gene Mpp2
  Fold Change (Pre- to Post-op): −5.693
Gene Mrap
  Fold Change (Pre- to Post-op): −3.915
Gene Mrvi1
  Fold Change (Pre- to Post-op): −3.235
Gene Msi1
  Fold Change (Pre- to Post-op): −5.962
Gene Msn
  Fold Change (Pre- to Post-op): −3.809
Gene Mtss1l
  Fold Change (Pre- to Post-op): −6.11
Gene Mvb12b
  Fold Change (Pre- to Post-op): −3.459
Gene Mxra8
  Fold Change (Pre- to Post-op): −3.347
Gene Myadm
  Fold Change (Pre- to Post-op): −3.606
Gene Myh9
  Fold Change (Pre- to Post-op): −5.591
Gene Myh11
  Fold Change (Pre- to Post-op): −5.837
Gene Myh14
  Fold Change (Pre- to Post-op): −4.91
Gene Myo1b
  Fold Change (Pre- to Post-op): −3.028
Gene Myo1e
  Fold Change (Pre- to Post-op): −3.792
Gene Myo1f
  Fold Change (Pre- to Post-op): −4.046
Gene Myo5a
  Fold Change (Pre- to Post-op): −3.124
Gene Myo7b
  Fold Change (Pre- to Post-op): −4.215
Gene Myo18a
  Fold Change (Pre- to Post-op): −3.82
Gene Myo1d
  Fold Change (Pre- to Post-op): −4.145
Gene Myof
  Fold Change (Pre- to Post-op): −3.686
Gene Mypop
  Fold Change (Pre- to Post-op): −4.666
Gene Myrf
  Fold Change (Pre- to Post-op): −3.19
Gene N4bp2
  Fold Change (Pre- to Post-op): −4.664
Gene Nat8l
  Fold Change (Pre- to Post-op): −5.813
Gene Nav1
  Fold Change (Pre- to Post-op): −4.981
Gene Nbea
  Fold Change (Pre- to Post-op): −3.203
Gene Nbr1
  Fold Change (Pre- to Post-op): −3.474
Gene Ncapd2
  Fold Change (Pre- to Post-op): −4.59
Gene Ncdn
  Fold Change (Pre- to Post-op): −6.446
Gene Nckap1l
  Fold Change (Pre- to Post-op): −3.892
Gene Ncl
  Fold Change (Pre- to Post-op): −3.283
Gene Ncoa1
  Fold Change (Pre- to Post-op): −3.068
Gene Ncoa6
  Fold Change (Pre- to Post-op): −3.207
Gene Ncor2
  Fold Change (Pre- to Post-op): −6.482
Gene Nedd4
  Fold Change (Pre- to Post-op): −4.292
Gene Nefm
  Fold Change (Pre- to Post-op): −4.086
Gene Negr1
  Fold Change (Pre- to Post-op): −5.117
Gene Nell1
  Fold Change (Pre- to Post-op): −5.436
Gene Nell2
  Fold Change (Pre- to Post-op): −4.751
Gene Neurl1a
  Fold Change (Pre- to Post-op): −3.646
Gene Nfat5
  Fold Change (Pre- to Post-op): −3.212
Gene Nfatc1
  Fold Change (Pre- to Post-op): −3.71
Gene Nfatc2
  Fold Change (Pre- to Post-op): −5.433
Gene Nfatc4
  Fold Change (Pre- to Post-op): −3.134
Gene Nfic
  Fold Change (Pre- to Post-op): −6.107
Gene Nhsl2
  Fold Change (Pre- to Post-op): −8.108
Gene Nid1
  Fold Change (Pre- to Post-op): −3.504
Gene Nid2
  Fold Change (Pre- to Post-op): −4.055
Gene Nol6
  Fold Change (Pre- to Post-op): −4.067
Gene Nos1
  Fold Change (Pre- to Post-op): −3.203
Gene Nos3
  Fold Change (Pre- to Post-op): −5.219
Gene Notch3
  Fold Change (Pre- to Post-op): −7.086

Source: patent US10857167B2, “Use of oligosaccharide compositions to enhance weight gain” (Children's Hospital Medical Center, priority 2015, dated 2020)
